# In article PMC5592244:
# These are yes or no findings as the source states them, for the method shown. In cells and extracts the contact can be indirect. A yes stands for co-enrichment or nearness to the bait. Other partners may have been found.
# B1: ATXN2L (endogenous, HEK293T) (protein, UniProt Q8WWM7 1-1075)
# chain: MLKPQPLQQPSQPQQPPPTQQAVARRPPGGTSPPNGGLPGPLATSAAPPGPPAAASPCLGPVAAAGSGLRRGAEGILAPQPPPPQQHQERPGAAAIGSARGQSTGKGPPQSPVFEGVYNNSRMLHFLTAVVGSTCDVKVKNGTTYEGIFKTLSSKFELAVDAVHRKASEPAGGPRREDIVDTMVFKPSDVMLVHFRNVDFNYATKDKFTDSAIAMNSKVNGEHKEKVLQRWEGGDSNSDDYDLESDMSNGWDPNEMFKFNEENYGVKTTYDSSLSSYTVPLEKDNSEEFRQRELRAAQLAREIESSPQYRLRIAMENDDGRTEEEKHSAVQRQGSGRESPSLASREGKYIPLPQRVREGPRGGVRCSSSRGGRPGLSSLPPRGPHHLDNSSPGPGSEARGINGGPSRMSPKAQRPLRGAKTLSSPSNRPSGETSVPPPPAVGRMYPPRSPKSAAPAPISASCPEPPIGSAVPTSSASIPVTSSVSDPGVGSISPASPKISLAPTDVKELSTKEPGRTLEPQELARIAGKVPGLQNEQKRFQLEELRKFGAQFKLQPSSSPENSLDPFPPRILKEEPKGKEKEVDGLLTSEPMGSPVSSKTESVSDKEDKPPLAPSGGTEGPEQPPPPCPSQTGSPPVGLIKGEDKDEGPVAEQVKKSTLNPNAKEFNPTKPLLSVNKSTSTPTSPGPRTHSTPSIPVLTAGQSGLYSPQYISYIPQIHMGPAVQAPQMYPYPVSNSVPGQQGKYRGAKGSLPPQRSDQHQPASAPPMMQAAAAAGPPLVAATPYSSYIPYNPQQFPGQPAMMQPMAHYPSQPVFAPMLQSNPRMLTSGSHPQAIVSSSTPQYPSAEQPTPQALYATVHQSYPHHATQLHAHQPQPATTPTGSQPQSQHAAPSPVQHQAGQAPHLGSGQPQQNLYHPGALTGTPPSLPPGPSAQSPQSSFPQPAAVYAIHHQQLPHGFTNMAHVTQAHVQTGITAAPPPHPGAPHPPQVMLLHPPQSHGGPPQGAVPQSGVPALSASTPSPYPYIGHPQGEQPGQAPGFPGGADDRIREFSLAGGIWHGRAEGLQVGQDARVLGGE
# Target: FLAG-UBR5-CS (catalytically dead UBR5, C2768S) (human) (UniProt O95071)
# Assay: affinity purification with mass spectrometry; FLAG-tagged UBR5 baits in LiCl-stimulated HEK293T cells; lysis buffer 20 mM Tris-HCl pH 7.4, 100 mM NaCl, 10% glycerol, 0.2% Triton X-100; Flag affinity gel 2 hr at 4°C; eluted with 3xFlag-Peptide; LC-MS/MS
binder,measurement,value
B1,binding,binds
